# Test results published in PubChem BioAssay (Tox21).
# The inconclusive results got no clear call from the source; some entries with a clear call stand among them for comparison. Where the call is inconclusive, the potency comes from a doubtful curve fit. Activity calls are given as the source filed them. Calls follow the shape of the dose curve; as a rule, active = well fitted cell-killing curve with a large enough effect in the repeat runs; inconclusive = weak or mixed curves, or effect the other way; inactive = flat fitted curve, though single readings scatter.
# Assay: cAMP Responsive Elements (CRE) small molecule agonists, cell-based qHTS assay: qHTS cell viability counter screen (AID 2060914); also: nearly all actives have a fitted effect of over 50% in size
# Details: CRE-bla HEK293T viability, CellTiter-Glo luminescence, 5 h; series mostly up to 92.4 µM
# Outline: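 Cytotoxicity was measured as ATP luminescence (CellTiter-Glo, 30 min at room temperature) in the same wells as the CRE-bla FRET read-out. HEK293T CRE-bla cells had 3 h compound exposure at 37C/5% CO2.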
# Potency is read from the fitted curve at half-maximal effect.
row,SMILES,Potency
1,CO/N=C(/C(=O)N[C@@H]1C(=O)N2C(C(=O)[O-])=C(C[n+]3ccn4ncccc43)CS[C@H]12)c1nsc(N)n1,inactive
2,O=C(CS(=O)Cc1ccco1)NC/C=C\COc1cc(CN2CCCCC2)ccn1 (stereo not drawn),inactive
3,CCC(=O)OCCc1ccccc1,"inconclusive: 1.31 µM [cytotoxic, single point]"
4,CCOC(=O)n1ccn(C)c1=S,"inconclusive: 18.8 µM [cytotoxic, single point]"
5,COc1ccc(CN(CCN(C)C)c2ccccn2)cc1,"inconclusive: 19.1 µM [cytotoxic, single point]"
6,CC(C)(C)OC(=O)c1ccc(O)cc1,inactive
7,NC(=O)C1CO1 (stereo not drawn),"inconclusive: 0.611 µM [cytotoxic, single point]"
8,COc1ccc([C@@H]2Sc3ccccc3NC(=O)[C@@H]2O)cc1,inactive
9,O=C1OC(OC(=O)c2cccnc2Nc2cccc(C(F)(F)F)c2)c2ccccc21 (stereo not drawn),"inconclusive: 1.33 µM [cytotoxic, full curve, poor fit]"
10,CSCC[C@H](NC(=O)[C@H](Cc1c[nH]c2ccccc12)NC(=O)CCNC(=O)OC(C)(C)C)C(=O)N[C@@H](CC(=O)O)C(=O)N[C@@H](Cc1ccccc1)C(N)=O,inactive
11,Cc1ccc([N+](=O)[O-])cc1S(=O)(=O)O,inactive
12,CC(C)COC(=O)CC(C(=O)OCC(C)C)S(=O)(=O)O (stereo not drawn),"inconclusive: 1.37 µM [cytotoxic, single point]"
13,C[Si]1(C)O[Si](C)(C)O[Si](C)(C)O[Si](C)(C)O1,"inconclusive: 0.22 µM [cytotoxic, single point]"

# A second format for two compounds above:
row | SMILES | Potency
11 | Cc1ccc([N+](=O)[O-])cc1S(=O)(=O)O | inactive
12 | CC(C)COC(=O)CC(C(=O)OCC(C)C)S(=O)(=O)O (stereo not drawn) | inconclusive: 1.37 µM [cytotoxic, single point]
